Source: patent US9567301B2, “Pyrrol-1-yl benzoic acid derivatives useful as myc inhibitors” (Whitehead Institute for Biomedical Research, priority 2012, dated 2017)
Structures were worked out from names or drawings and are uncertain.

Sequences of proteins named here, by UniProt entry; tags and fusion partners are left off. Residues count along the entry.
UniProt P01106, 16-454: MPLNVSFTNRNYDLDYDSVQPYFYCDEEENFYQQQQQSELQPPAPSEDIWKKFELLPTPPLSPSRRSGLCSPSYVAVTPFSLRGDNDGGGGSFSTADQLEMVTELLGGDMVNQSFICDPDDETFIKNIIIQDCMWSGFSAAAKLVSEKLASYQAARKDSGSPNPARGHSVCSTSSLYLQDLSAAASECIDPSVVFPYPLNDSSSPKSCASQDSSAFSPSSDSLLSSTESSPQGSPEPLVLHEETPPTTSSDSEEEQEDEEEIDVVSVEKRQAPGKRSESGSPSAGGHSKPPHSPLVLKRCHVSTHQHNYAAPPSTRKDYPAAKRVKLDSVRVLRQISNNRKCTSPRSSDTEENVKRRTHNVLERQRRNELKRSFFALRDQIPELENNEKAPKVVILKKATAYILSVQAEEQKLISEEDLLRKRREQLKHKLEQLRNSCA

What was measured:
[1] = tested on: H2171 cells; test: Cell viability assay (ATPlite), H2171; assay type: cell-based, human; conditions: read-out: H2171 EC50, three days, NA: inactive under assay conditions
[2] = tested on: MM1S cells; test: Cell viability assay (ATPlite), MM1S; assay type: cell-based, human; conditions: read-out: MM1S EC50, three days, NA: inactive under assay conditions
[3] = biological target: c-Myc/Max/Ebox DNA (Homo sapiens, UniProt P01106); test: c-Myc/Max/Ebox DNA AlphaScreen assay; assay type: binding; conditions: read-out: Biochemical IC50, NA: inactive under assay conditions

EC50 [1]: 3240 µM
EC50 [2]: 5.75 µM
IC50 [3]: 17.1 µM
SMILES: Cc1ccc(C)n1-c1cc(C(=O)N/N=C/C2CNc3ccc(C#N)cc32)ccc1C(=O)O (stereo not drawn)
